Results as given in US6982142B2, “Methods for screening therapeutically effective agents” (John Wayne Cancer Institute, priority 1997, dated 2006).

Tested on: MCF-7-AdrR cells
Experiment: Metabolic fate of C6-ceramide (TLC, H2SO4 charring) in MDR cells
Format: cell-based, human
Conditions: C6-ceramide 10 μM, 24 hr, serum-free medium

CCCCCCCCCCCCC/C=C/[C@@H](O)[C@H](CO)NC(=O)CCCCC [C6-ceramide, N-hexanoylsphingosine]
free C6-ceramide in cells: undetectable | glucosyl-C6-ceramide (glycosylation product) in cells, compared with wild-type cells: markedly increased
